# According to the supplement of paper PMC11348887:
# Structures can show the parent of a compound that is named as a salt. The list shows a part of the results. Most entries show no effect beyond the scatter of the controls. *1 amine or outer side, *2 acyl side, *3 side chain or, on linkers, in order; H or OH if unused. Where a SMILES comes first, the peptide text is derived from it. Bridges are numbered along the chain shown (N, C = ends). [ ]: non-standard residue; d: D form. The star is where a group is joined. pTerphenylCO(4''-OnC5H11) = CCCCCOc1ccc(-c2ccc(-c3ccc(C(=O)*)cc3)cc2)cc1; Orn(4R-OH,5R-OH) = O=C([C@H](C[C@@H](O)[C@@H](O)N[*:3])N[*:1])[*:2]; hTyr(3S-OH,4S-OH) = N[C@H](C(=O)O)[C@H](O)[C@@H](O)c1ccc(O)cc1; Pro(3S-OH,4S-Me) = C[C@H]1CN[C@H](C(=O)O)[C@H]1O; Hyp = O=C(O)[C@@H]1C[C@@H](O)CN1
# Test system: hPSC-derived cortical neurons (WA09)
# Test: nucleus roundness z-score vs screen plate; higher = rounder nuclei (more mature)
# Settings: 5 µM; treatment: days 7-14 after plating, readout day 21
row,Compound,nucleus roundness z-score
1,CCCCNc1cc(C(=O)O)cc(S(N)(=O)=O)c1Oc1ccccc1 [Bumetanide],0.883
2,C[C@H]1c2cccc(O)c2C(=O)C2=C(O)[C@]3(O)C(=O)C(C(N)=O)=C(O)[C@@H](N(C)C)[C@@H]3[C@@H](O)[C@@H]21 [Doxycycline Hyclate],-1.38
3,CC(CN1c2ccccc2Sc2ccccc21)N(C)C (stereo not drawn) [Promethazine HCl],-0.591
4,COc1ccc(CCNCc2ccc(OCc3ccc(Cl)nc3)c(OC)c2)cc1OC,-0.221
5,CCC/N=C1\S/C(=C\c2ccc(OC[C@H](O)CO)c(Cl)c2)C(=O)N1c1ccccc1C [Ponesimod],-2.07
6,Nc1nc(N)c2nc(-c3cccc(O)c3)cnc2n1,-0.263
7,CN1CCN2c3ccccc3Cc3ccccc3C2C1 (stereo not drawn) [Mianserin HCl],-0.00362
8,CCC(NC(C)C)C(O)c1ccc(O)c(O)c1 (stereo not drawn) [Isoetharine Mesylate],-0.0587
9,CCC[C@H](NC(=O)/C(C#N)=C/c1cccc(Br)n1)c1ccccc1 [Degrasyn (WP1130)],-0.258
10,CCC[S+]([O-])c1ccc2[nH]c(NC(=O)OC)nc2c1 (stereo not drawn) [Albendazole Oxide],-0.3
11,COc1ccc(-c2ccc3cc(C(=O)O)ccc3c2)cc1C12CC3CC(CC(C3)C1)C2 [Adapalene],0.546
12,Cc1ccc(C(=O)N(CCCN)[C@@H](c2oc3cc(Cl)ccc3c(=O)c2Cc2ccccc2)C(C)C)cc1,-11.1
13,COc1cc(C=O)ccc1O [Vanillin],-1.27
14,Oc1cc2c(cc1O)[C@@H]1c3ccc(O)c(O)c3OC[C@]1(O)C2 [Hematoxylin],0.921
15,CC(C)/N=c1\cc2n(-c3ccc(Cl)cc3)c3ccccc3nc-2cc1Nc1ccc(Cl)cc1 [Clofazimine],-0.26

# Some of the entries above, set out differently:
row | Compound | nucleus roundness z-score
10 | CCC[S+]([O-])c1ccc2[nH]c(NC(=O)OC)nc2c1 (stereo not drawn) [Albendazole Oxide] | -0.3
11 | COc1ccc(-c2ccc3cc(C(=O)O)ccc3c2)cc1C12CC3CC(CC(C3)C1)C2 [Adapalene] | 0.546

# Test system: hPSC-derived cortical neurons (WA09)
# Test: KCl-induced FOS+/EGR-1+ double-positive nuclei fraction z-score (KCl minus unstimulated); higher = stronger activity-induced IEG response
# Settings: 5 µM; treatment: days 7-14 after plating, readout day 21
row,Compound,KCl-induced FOS+/EGR-1+ double-positive nuclei fraction z-score
1,COc1cc2nc(N(C)CCCNC(=O)C3CCCO3)nc(N)c2cc1OC (stereo not drawn) [Alfuzosin HCl],-0.603
2,CC[C@H](C)n1cc(C)c2c(C(=O)NCc3c(C)cc(C)[nH]c3=O)cc(-c3ccc(N4CCNCC4)nc3)cc21,0.86
3,OC[C@H]1O[C@@H](Oc2ccc(O)cc2)[C@H](O)[C@@H](O)[C@@H]1O [Arbutin],-0.334
4,NC(=O)[C@@H](CCC(F)(F)F)N(Cc1ccc(-c2ncon2)cc1F)S(=O)(=O)c1ccc(Cl)cc1,-0.0549
5,O=C(O)CCNC(=O)c1ccccc1 [Betamipron],0.302
6,CN(C)Cc1c(C(=O)NCCOc2ccc(C(=O)NO)cc2)oc2ccccc12,-0.507
7,OCCn1cc(-c2ccc3c(c2)CC/C3=N\O)c(-c2ccncc2)n1,-1.19
8,OCc1c[nH]c2ccccc12 [Indole-3-carbinol],-1.8
9,Cc1cc(=O)oc2cc(O)ccc12 [4-Methylumbelliferone (4-MU)],1.13
10,CC1(C)CCC(C)(C)c2cc(NC(=O)c3ccc(C(=O)O)cc3)ccc21 [Tamibarotene],0.144
11,"CCCCCOc1ccc(-c2ccc(-c3ccc(C(=O)N[C@H]4C[C@@H](O)[C@@H](O)NC(=O)[C@@H]5[C@@H](O)[C@@H](C)CN5C(=O)[C@H]([C@@H](C)O)NC(=O)[C@H]([C@H](O)[C@@H](O)c5ccc(O)cc5)NC(=O)[C@@H]5C[C@@H](O)CN5C(=O)[C@H]([C@@H](C)O)NC4=O)cc3)cc2)cc1 ({pTerphenylCO(4''-OnC5H11)}-[Orn(4R-OH,5R-OH)]T[Hyp][hTyr(3S-OH,4S-OH)]T[Pro(3S-OH,4S-Me)]; lactam 1-C)",-0.375
12,O=C(Nc1ccccc1)OCC(CN1CCCCC1)OC(=O)Nc1ccccc1 (stereo not drawn) [Diperodon HCl],0.166
13,CC(C)c1cc(C(C)C)c(CC(=O)NS(=O)(=O)Oc2c(C(C)C)cccc2C(C)C)c(C(C)C)c1 [Avasimibe],2.71
14,OC(CCN1CCCCC1)(c1ccccc1)C1CCCCC1 (stereo not drawn) [Trihexyphenidyl hydrochloride],-0.417
15,O=C(Nc1cc(Cl)cc2c1[nH]c1cnccc12)c1cccnc1,-0.427
16,CN1C(=O)[C@@H](NC(=O)c2cc(Cc3ccccc3)on2)COc2ccccc21,2.01
17,CC(=O)O[C@H]1C[C@@]2(C)[C@@H](C[C@@H](O)[C@H]3[C@@]4(C)CC[C@@H](O)[C@@H](C)[C@@H]4CC[C@@]32C)/C1=C(\CCC=C(C)C)C(=O)O [Fusidate Sodium],0.376
18,C=CC(=O)N1C/C(=C\c2ccc([N+](=O)[O-])cc2)C(=O)/C(=C/c2ccc([N+](=O)[O-])cc2)C1,4.19
